Data reported in PMC6443781.
No constants are given. Whether binding was seen depends on the method and setting. Binding seen in cells or lysates may run through a third protein. Binding can be weak; no strength is given.

Chains of the proteins cited; added tags and fusions are not shown. Lines headed by an entry give the natural chain unless they say otherwise; changes in a name come on top.
UniProt O60566: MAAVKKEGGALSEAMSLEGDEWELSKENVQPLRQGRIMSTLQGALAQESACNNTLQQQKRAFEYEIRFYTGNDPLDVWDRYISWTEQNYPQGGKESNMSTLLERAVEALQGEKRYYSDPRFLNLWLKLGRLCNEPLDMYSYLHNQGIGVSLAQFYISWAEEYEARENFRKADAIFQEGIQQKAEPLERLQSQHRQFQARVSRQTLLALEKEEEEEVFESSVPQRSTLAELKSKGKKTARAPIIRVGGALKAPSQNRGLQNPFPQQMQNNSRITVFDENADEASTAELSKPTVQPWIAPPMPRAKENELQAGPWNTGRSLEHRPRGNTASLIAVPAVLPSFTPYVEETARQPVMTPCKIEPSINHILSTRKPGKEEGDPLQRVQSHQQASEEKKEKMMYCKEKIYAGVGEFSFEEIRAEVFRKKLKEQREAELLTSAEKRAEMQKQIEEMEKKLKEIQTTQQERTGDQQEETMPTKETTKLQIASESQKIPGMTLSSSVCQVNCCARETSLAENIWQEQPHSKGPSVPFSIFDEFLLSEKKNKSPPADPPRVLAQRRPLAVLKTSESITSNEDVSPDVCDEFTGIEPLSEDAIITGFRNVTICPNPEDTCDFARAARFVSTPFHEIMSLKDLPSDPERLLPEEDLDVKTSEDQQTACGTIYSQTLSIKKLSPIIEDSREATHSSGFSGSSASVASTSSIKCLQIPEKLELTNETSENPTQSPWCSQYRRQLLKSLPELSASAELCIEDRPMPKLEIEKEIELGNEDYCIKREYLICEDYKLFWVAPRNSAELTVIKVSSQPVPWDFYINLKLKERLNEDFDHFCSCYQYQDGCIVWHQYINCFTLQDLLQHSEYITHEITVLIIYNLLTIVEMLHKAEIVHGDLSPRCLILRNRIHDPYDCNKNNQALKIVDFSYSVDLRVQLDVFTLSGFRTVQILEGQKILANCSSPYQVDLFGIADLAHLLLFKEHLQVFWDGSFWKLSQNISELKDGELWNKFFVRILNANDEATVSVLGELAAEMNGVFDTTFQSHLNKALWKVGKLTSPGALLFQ
UniProt P63010: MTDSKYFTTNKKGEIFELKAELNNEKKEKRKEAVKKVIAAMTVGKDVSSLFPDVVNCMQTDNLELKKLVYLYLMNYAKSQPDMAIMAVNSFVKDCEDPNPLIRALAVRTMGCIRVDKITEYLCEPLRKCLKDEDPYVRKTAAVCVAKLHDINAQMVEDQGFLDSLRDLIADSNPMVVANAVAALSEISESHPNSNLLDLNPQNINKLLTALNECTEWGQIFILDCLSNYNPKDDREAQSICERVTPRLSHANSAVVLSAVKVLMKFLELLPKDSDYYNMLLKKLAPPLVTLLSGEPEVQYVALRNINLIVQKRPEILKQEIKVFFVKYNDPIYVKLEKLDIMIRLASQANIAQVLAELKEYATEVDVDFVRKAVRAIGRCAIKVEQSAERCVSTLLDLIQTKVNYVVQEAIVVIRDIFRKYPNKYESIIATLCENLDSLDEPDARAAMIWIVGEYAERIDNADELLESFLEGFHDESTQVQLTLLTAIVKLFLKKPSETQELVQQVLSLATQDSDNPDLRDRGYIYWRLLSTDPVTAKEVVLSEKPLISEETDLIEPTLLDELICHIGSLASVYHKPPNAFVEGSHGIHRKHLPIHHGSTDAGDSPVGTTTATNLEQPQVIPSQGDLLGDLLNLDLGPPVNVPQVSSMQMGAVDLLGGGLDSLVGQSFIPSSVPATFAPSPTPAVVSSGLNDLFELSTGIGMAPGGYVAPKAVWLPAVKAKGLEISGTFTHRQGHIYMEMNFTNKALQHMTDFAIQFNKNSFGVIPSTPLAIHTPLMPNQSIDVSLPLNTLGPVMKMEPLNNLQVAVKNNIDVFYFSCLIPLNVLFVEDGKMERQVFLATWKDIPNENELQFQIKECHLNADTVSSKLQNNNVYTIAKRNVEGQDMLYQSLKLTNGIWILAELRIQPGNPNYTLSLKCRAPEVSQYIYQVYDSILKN

Biological target: Myc-BUBR1 ΔPhe + ΔD2 (full length) (human) (UniProt O60566)
Experiment: co-IP; 293FT cells transfected with GFP-AP2B1 and Myc-BUBR1 plasmids; anti-Myc-BUBR1 IP from total cell lysate, blotted with anti-Myc and anti-AP2B1 or anti-GFP

- binding: binds
Substance: GFP-AP2B1 full length (FL) (from UniProt P63010 1-937)
